The results in this text go back to the supplement of paper PMC3334620.

In all, about 33,000 sequences were measured (“E-score (-0.5 to 0.5)”: median about -0.0014, highest 2% from about 0.25 on). The list shows a part of the results.

The test addresses T1, Cad1 (UniProt P24813).
T1 sequence: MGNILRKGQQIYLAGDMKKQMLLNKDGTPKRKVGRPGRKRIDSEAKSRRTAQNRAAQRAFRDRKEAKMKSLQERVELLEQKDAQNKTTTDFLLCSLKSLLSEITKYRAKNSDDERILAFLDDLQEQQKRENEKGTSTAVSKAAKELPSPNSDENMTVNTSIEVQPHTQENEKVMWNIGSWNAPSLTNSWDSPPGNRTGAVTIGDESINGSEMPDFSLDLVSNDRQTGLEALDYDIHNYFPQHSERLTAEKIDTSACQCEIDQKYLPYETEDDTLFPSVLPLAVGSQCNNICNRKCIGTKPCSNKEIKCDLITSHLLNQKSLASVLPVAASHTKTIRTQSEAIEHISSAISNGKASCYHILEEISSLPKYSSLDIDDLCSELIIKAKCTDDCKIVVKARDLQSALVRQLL
Description: PBM E-score (8-mer binding enrichment) (E-score (-0.5 to 0.5)); higher = stronger / more preferred TF binding. To be noted: protein concentration: 100 nM; construct: GST-full length. The essentials: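 For each ungapped eight-base word taken together with its reverse complement, the Universal PBM Analysis Suite assigned an E-score. Binding data came from GST-tagged yeast transcription factors, applied at about 100-200 nM, on universal all-10-mer Agilent arrays made double-stranded by primer extension. Fluorescent anti-GST marked bound protein, and scans were normalised with masliner.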
Turning to AGTTACTC, the “PBM E-score” value is 0.175.
For CCCGTATA the value was 0.0295.
As to ATGTCTCA, the “PBM E-score” value was -0.01.
For the sequence ATATATAA, the “PBM E-score” value stood at 0.32.
AAATTGAC: the “PBM E-score” value amounted to 0.0948.
For CCTTTTAG the value was -0.193; for GACGTAAC, 0.0222.
Consider GTGTAGGA, for which the “PBM E-score” value is -0.0617.
For AGATTGAC the value was 0.0226.
As for AAATTATC, the figure is 0.246; as for CGTTTGAC, -0.136; as for AGCAGAAG, -0.0937.
On to ACAGGCGC, for which the “PBM E-score” value stood at 0.018.
For GAAGGATA the value was -0.0804; for GCGGGTTA, -0.0942.
As for GAGCGCAA, the “PBM E-score” value is 0.115.
For TCGTATCA the value was 0.142; for CGAGTCAC, -0.195.
Consider CCGCGAGA, for which the “PBM E-score” value is -0.102.
In the case of ATTTCTAG, the “PBM E-score” value stood at 0.0493.
Take ACCCAGGA: the “PBM E-score” value is -0.184.
Take CCCACATA: the “PBM E-score” value is -0.179.
CAGTTCAA: the “PBM E-score” value is 0.00708.
For AACCAAAA the value was 0.0326; for GAACAAAA, 0.274.
As for TCTTTGAA, the figure is -0.0617.
In the case of CACTATCA, the “PBM E-score” value was -0.0292.
For TAGGCTAA the value was 0.0308; for GTAGTGAA, 0.0761; for CGCTCCGC, -0.0708.
Take CCAGCACA: the “PBM E-score” value is -0.0411.
Consider CACAAGTG, for which the “PBM E-score” value is -0.154.
For AATCTGCA the value was 0.0201; for CACGCGAA, 0.0527.
For AGAGGTAT the value was 0.0452; for ATCCTTTA, 0.0155; for ATTTATGA, 0.193.
For the sequence ATGATCGG, the “PBM E-score” value was -0.0294.
As to ACGGTTAA, the “PBM E-score” value is -0.0408.
As for GTGTATGA, the figure is -0.0775; as for TCCACCCA, -0.204.
For GAGAGTCA the value was -0.12; for ACGGGATC, -0.0506.
As to TGTGAGAA, the “PBM E-score” value amounted to 0.134.
Turning to CGGCCCCC, the “PBM E-score” value was -0.304.
In the case of CTTTAGGA, the “PBM E-score” value was -0.188.
With TGTTGAAA, the “PBM E-score” value was found to be 0.135.
CTAACCCA: the “PBM E-score” value was -0.0318.
Regarding TAAGTCTA, the “PBM E-score” value is -0.204.
For GCACTGAA the value was -0.00339.
With ATGTAGTA, the “PBM E-score” value was 0.186.
Regarding ATCAGCTC, the “PBM E-score” value was 0.0714.
For ACCATCAT the value was -0.128; for GTTAAATA, -0.0784.
Consider GGGATTTA, for which the “PBM E-score” value was determined as 0.0767.
As for ATGAGCTA, the figure is 0.039.
For AAGCTGTG the value was 0.0994; for AGTATGTG, 0.0343.
As to GCCGCTAC, the “PBM E-score” value worked out at 0.0123.
Take CACGTAAC: the “PBM E-score” value is -0.0431.
Regarding CAGCACGA, the “PBM E-score” value turned out to be 0.0762.
As for GAACGGCA, the figure is 0.122; as for CCCAGAAC, -0.0556; as for AGCGCGAC, 0.106.
For ATTTCTAA the value was 0.16; for ATTGGGTC, -0.0003; for CTAGCTAA, -0.0595.
As for ACCGCTCG, the figure is -0.14; as for GTTGAGTA, 0.027; as for CCATAACA, 0.106.
For AGTCTTAA, the “PBM E-score” value is -0.19.
In the case of CATCAAGC, the “PBM E-score” value stood at 0.0307.
As for AGTCCAGC, the figure is -0.112; as for ATTCGGCA, -0.0535; as for AATCCTAC, -0.115.
For ATGAAACC the value was 0.159.
As for CGAGGTTC, the figure is 0.0555.
Consider AGGTTACC, for which the “PBM E-score” value was 0.193.
With CGATTCCA, the “PBM E-score” value is -0.0248.
For AACATTCC the value was 0.0116.
AACCTTTG: the “PBM E-score” value is -0.0691.
For GGCCGCCC the value was -0.16; for AAGCGTCA, 0.156; for GGTTAACC, -0.0963.
With CGGAGTTC, the “PBM E-score” value came out at 0.0231.
For AATTGTGA the value was 0.104.
